Laboratory results published in patent US8148089B2, “Alpha-synuclein kinase” (Elan Pharma International Limited, priority 2006, dated 2012).

Experiments:
[1] = tested on: endogenous kinase (293); assay: Synuclein phosphorylation by endogenous kinase in HEK-293 cells (synuclein + vector); format: cell-based, human
Protocol: All vectors had the sequence coding for the protein of interest. Transfection was accomplished using Lipofectamine 2000 (Invitrogen, Carlsbad, Calif.) with 0.08 μg vector. Cells were washed and harvested 48 hours post-transfection. A Micro BCA (Pierce) total protein assay and total synuclein and phospho-synuclein ELISAs were performed on each plate of treated cells.

[2] = tested on: synuclein phosphorylation in the cellular paradigms tested; assay: Inhibition of synuclein phosphorylation, several cellular paradigms; format: cell-based; conditions: in any of the cells or in the in vitro assay

SMILES: CO[C@@H]1[C@H](N(C)C(=O)c2ccccc2)C[C@H]2O[C@]1(C)n1c3ccccc3c3c4c(c5c6ccccc6n2c5c31)C(=O)NC4 [N-Benzoyl Staurosporine, N-benzoyl staurosporine]
- EC50 [1]: > 100 µM
- inhibition of 50% of synuclein phosphorylation [2]: did not inhibit 50% of synuclein phosphorylation
